According to patent US20130253012A1, “Pyrazole Compounds for Controlling Invertebrate Pests” (BASF SE, priority 2010, published 2013):
Some entries share one result that the patent states for a list of compounds.

Columns and labels:
Assay type in all cases: in vivo
[1] = test system: Diamondback Moth (Plutella xylostella); assay: Diamondback moth, cabbage leaf disk dip; conditions: test solution 500 ppm; cabbage leaf disk dipped; third instar larvae; after 72 hours
[2] = test system: Cowpea Aphid (Aphis craccivora); assay: Cowpea aphid, sprayed potted cowpea plants; conditions: 500 ppm, assessed after 24, 72 and 120 hours
Procedure: II.3 Cowpea Aphid (Aphis craccivora)
The active compounds were formulated in 50:50 (v/v) acetone:water. The test solution was prepared at the day of use.
Potted cowpea plants colonized with 100-150 aphids of various stages were sprayed after the pest population had been recorded. Population reduction was assessed after 24, 72, and 120 hours.

[3] = test system: Green Peach Aphid (Myzus persicae); assay: Green peach aphid through systemic means, artificial diet under membrane; conditions: 2500 ppm; pipetted into aphid diet; 3 days
Source text: II.6 Activity Against Green Peach Aphid (Myzus persicae)
For evaluating control of green peach aphid (Myzus persicae) through systemic means the test unit consisted of 96-well-microtiter plates containing liquid artificial diet under an artificial membrane.
The compounds were formulated using a solution containing 75% v/v water and 25% v/v DMSO. Different concentrations of formulated compounds were pipetted into the aphid diet, using a custom built pipetter, at two replications. After application, 5 to 8 adult aphids were placed on the artificial membrane inside the microtiter plate wells. The aphids were then allowed to suck on the treated aphid diet and incubated at about 23+1° C. and about 50+5% relative humidity for 3 days. Aphid mortality and fecundity was then visually assessed.

[4] = test system: Vetch Aphid (Megoura viciae); assay: Vetch aphid, bean leaf disks in microtiterplates; conditions: test solution 2500 mg/L; bean leaf disks sprayed with 2.5 μl; 6 days
Procedure: II.4 Vetch Aphid (Megoura viciae)
The active compounds were formulated in 1:3 (v/v) DMSO:water with different concentrations of formulated compounds.
Bean leaf disks were placed into microtiterplates filled with 0.8% agar-agar and 2.5 ppm OPUS™. The leaf disks were sprayed with 2.5 μl of the test solution and 5 to 8 adult aphids were placed into the microtiterplates which were then closed and kept at 23±1° C. and 50±5% relative humidity under fluorescent light for 6 days. Mortality was assessed on the basis of vital, reproduced aphids. Aphid mortality and fecundity was then visually assessed.

[5] = test system: Green Peach Aphid (Myzus persicae, Mixed Life Stages); assay: Green peach aphid, method b) (electrostatic spray, bell pepper plants); conditions: 300 ppm; infested bell pepper plants sprayed; after 5 days
Procedure: II.2 Green Peach Aphid (Myzus persicae, Mixed Life Stages)
(§1) The active compounds were formulated in cyclohexanone as a 10,0000 ppm solution supplied in 1.3 ml ABgene® tubes. These tubes were inserted into an automated electrostatic sprayer equipped with an atomizing nozzle and they served as stock solutions for which lower dilutions were made in 50% acetone:50% water (v/v). A nonionic surfactant (Kinetic®) was included in the solution at a volume of 0.01% (v/v).
Bell pepper plants at the first true-leaf stage were infested prior to treatment by placing heavily infested leaves from the main colony on top of the treatment plants. Aphids were allowed to transfer overnight to accomplish an infestation of 30-50 aphids per plant and the host leaves were removed. The infested plants were then sprayed by an automated electrostatic plant sprayer equipped with an atomizing spray nozzle. The plants were dried in the sprayer fume hood, removed, and then maintained in a growth room under fluorescent lighting in a 24 hour photoperiod at 25° C. and 20-40% relative humidity. Aphid mortality on the treated plants, relative to mortality on untreated control plants, was determined after 5 days.

[6] = test system: Silverleaf Whitefly (Bemisia argentifolii, Adult); assay: Silverleaf whitefly, sprayed cotton plants; conditions: 500 ppm, 3 days after treatment
Procedure: II.7 Silverleaf Whitefly (Bemisia argentifolii, Adult)
as §1
Cotton plants at the cotyledon stage (one plant per pot) were sprayed by an automated electrostatic plant sprayer equipped with an atomizing spray nozzle. The plants were dried in the sprayer fume hood and then removed from the sprayer. Each pot was placed into a plastic cup and 10 to 12 whitefly adults (approximately 3-5 days old) were introduced. The insects were collected using an aspirator and 0.6 cm, nontoxic Tygon® tubing (R-3603) connected to a barrier pipette tip. The tip, containing the collected insects, was then gently inserted into the soil containing the treated plant, allowing insects to crawl out of the tip to reach the foliage for feeding. Cups were covered with a reusable screened lid (150-micron mesh polyester screen PeCap from Tetko, Inc.). […] Mortality was assessed 3 days after treatment, compared to untreated control plants.

[7] = test system: Cotton Aphid (Aphis gossypii, Mixed Life Stages); assay: Cotton aphid, method b) (electrostatic spray); conditions: 300 ppm; infested cotton plants sprayed; after 5 days
Procedure: II.1 Cotton Aphid (Aphis gossypii, Mixed Life Stages)
as §1
Cotton plants at the cotyledon stage were infested with aphids prior to treatment by placing a heavily infested leaf from the main aphid colony on top of each cotyledon. Aphids were allowed to transfer overnight to accomplish an infestation of 80-100 aphids per plant and the host leaf was removed. The infested plants were then sprayed by an automated electrostatic plant sprayer equipped with an atomizing spray nozzle. The plants were dried in the sprayer fume hood, removed from the sprayer, and then maintained in a growth room under fluorescent lighting in a 24 hour photoperiod at 25° C. and 20-40% relative humidity. Aphid mortality on the treated plants, relative to mortality on untreated control plants, was determined after 5 days.

[8] = test system: Boll Weevil (Anthonomus grandis); assay: Boll weevil, insect diet with eggs in 24-well microtiter plates; conditions: test solution 2500 mg/L; 20 μl sprayed onto insect diet; 5 days
Procedure: II.5 Boll Weevil (Anthonomus grandis)
The compounds were formulated in 75:25 (v/v) water:DMSO.
For evaluating control of boll weevil (Anthonomus grandis) the test unit consisted of 24-well-microtiter plates containing an insect diet and 20-30 A. grandis eggs. Different concentrations of formulated compounds were sprayed onto the insect diet at 20 μl, using a custom built micro atomizer, at two replications. After application, the microtiter plates were incubated at 23±1° C. and 50±5% relative humidity for 5 days. Egg and larval mortality was then visually assessed.

| SMILES | mortality in comparison with untreated controls [2] | mortality in comparison with untreated controls [3] [%] | mortality [4] | further results |
| --- | --- | --- | --- | --- |
| FC(F)c1c(-c2nncn2-c2cccnc2)cnn1CC(F)(F)F [Example 9] | at least 75% |  |  | mortality in comparison with untreated controls [1]: at least 75% |
| Cc1c(-c2cc(-c3ccnnc3)[nH]n2)cnn1CC(F)(F)F [Example 36] | at least 75% | 100 | at least 90% |  |
| Cc1c(C2=NCCN2c2ccnnc2)cnn1CC(F)(F)F [Example 19] | at least 75% |  |  |  |
| Cc1c(-c2ccnc(-c3cccnc3)c2)cnn1CC(F)(F)F [Example 33] | at least 75% | 100 | at least 90% |  |
| Cc1c(-c2ncccc2-c2cccnc2)cnn1CC(F)(F)F [Example 24] |  |  | at least 90% |  |
| Cc1c(-c2cccc(-c3cccnc3)n2)cnn1CC(F)(F)F [Example 27] |  |  | at least 90% |  |
| FC(F)c1c(-c2nncn2-c2ccncc2)cnn1CC(F)(F)F [Example 13] |  | 100 |  |  |
| Cc1c(-c2nnc(C)n2-c2cccnc2)cnn1CC(F)(F)F [Example 3] |  |  |  | mortality in comparison with untreated controls [5]: at least 75% |
| Cc1c(-c2nnc(-c3cccnc3)o2)cnn1C(C)C [Example 40] | at least 75% |  | at least 90% | mortality in comparison with untreated controls [5]: at least 75% |
| Cc1c(C2=NCCN2c2cccnc2)cnn1C(C)C [Example 41] | at least 75% | 100 |  | mortality in comparison with untreated controls [5]: at least 75%; mortality in comparison with untreated controls [6]: at least 75%; mortality in comparison with untreated controls [7]: at least 75% |
| FC(F)c1c(-c2nncn2-c2ccccn2)cnn1CC(F)(F)F [Example 11] |  | 100 |  | mortality in comparison with untreated controls [1]: at least 75% |
| Cc1nnc(-c2cnn(CC(F)(F)F)c2C(F)F)n1-c1ccccn1 [Example 12] |  | 100 |  | mortality in comparison with untreated controls [1]: at least 75% |
| Cc1c(-c2cccc(-c3ccnnc3)c2)cnn1CC(F)(F)F [Example 26] |  |  | at least 90% |  |
| Cc1c(-c2nnc(-c3ccnnc3)s2)cnn1CC(F)(F)F [Example 17] |  |  |  | mortality (egg and larval) [8]: at least 50% |
| Cc1c(-c2cccc(-c3cccnc3)c2)cnn1CC(F)(F)F [Example 22] |  | 100 |  |  |
| Cc1c(-c2ccccc2-c2ccnnc2)cnn1CC(F)(F)F.O=C(O)C(F)(F)F [Example 34] |  |  |  | mortality (egg and larval) [8]: at least 50% |
| Cn1cc(-c2nncn2-c2cccnc2)c(C(F)(F)F)n1 [Example 1] | at least 75% | 100 | at least 90% | mortality in comparison with untreated controls [5]: at least 75%; mortality in comparison with untreated controls [7]: at least 75% |
| Cc1c(-c2nccn2-c2ccnnc2)cnn1CC(F)(F)F [Example 21] | at least 75% | 100 | at least 90% | mortality in comparison with untreated controls [6]: at least 75% |
